# Data as given in the supplement of paper PMC10727501.
# This is one part of the list. This data set is noisy: repeats of one test often differ as much as different tests do.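 Free-swimming zebrafish larvae were scored for O-bend response probability to dark flashes (naive: first five; training: remaining flashes of four 60-flash blocks; test: later 60-flash block) and for turning toward alternating leftward/rightward LED motion (OMR). Six treated larvae were compared with sixty 0.1% DMSO controls; |SSMD|≥2 defined a hit.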
# Key:
# Conditions in all cases: 10 µM; pre-incubation: 30-90 min
# [1] = tested on: Danio rerio larvae (5 dpf, TLF); assay: OMR-Perf (SSMD vs DMSO vehicle); higher = higher than vehicle (e.g. higher dark-flash O-bend response probability, or better optomotor performance)
# [2] = tested on: Danio rerio larvae (5 dpf, TLF); assay: Prob-Test (SSMD vs DMSO vehicle); higher = higher than vehicle (e.g. higher dark-flash O-bend response probability, or better optomotor performance)
# [3] = tested on: Danio rerio larvae (5 dpf, TLF); assay: Prob-Naive (SSMD vs DMSO vehicle); higher = higher than vehicle (e.g. higher dark-flash O-bend response probability, or better optomotor performance)
# [4] = tested on: Danio rerio larvae (5 dpf, TLF); assay: Prob-Train (SSMD vs DMSO vehicle); higher = higher than vehicle (e.g. higher dark-flash O-bend response probability, or better optomotor performance)
Structure (SMILES),OMR-Perf [1],Prob-Test [2],Prob-Naive [3],Prob-Train [4]
COc1ccc2c(Oc3ccc(NC(=O)c4c(C)n(CC(C)(C)O)n(-c5ccccc5)c4=O)nc3)ccnc2c1,-0.139,-0.801,-0.186,-0.333
O=C(c1ccc(C(=O)N2CCC(N3CCCC3)CC2)c(Nc2ccccc2)c1)N1CCC(N2CCCC2)CC1,-0.207,-0.67,0.587,-0.02
Cc1ccc(NC(=O)c2cccc(N(C)C)c2)cc1NC(=O)c1ccc(O)cc1,-0.146,-0.372,0.102,-0.187
c1cc(CN2CCCNCCNCCCNCC2)ccc1CN1CCCNCCNCCCNCC1 [Plerixafor (AMD3100)],0.671,0.191,0.351,-0.401
COc1cc(NC(C)CCCN)c2ncccc2c1.O=P(O)(O)O.O=P(O)(O)O (configuration not stated) [Primaquine Diphosphate],-0.17,0.0584,0.338,-0.457
O=C(/C=C/c1ccc(O)c(O)c1)O[C@@H]1C[C@@](O)(C(=O)O)C[C@@H](O)[C@H]1O [Chlorogenic Acid],-0.649,-0.332,-0.602,-0.347
CCOc1nc2cccc(C(=O)OCc3oc(=O)oc3C)c2n1Cc1ccc(-c2ccccc2-c2nc(=O)o[nH]2)cc1 [Azilsartan Medoxomil],-0.263,0.228,-0.568,-0.156
CC(C)c1noc(N2CCC(COc3ccc(-c4ccc(S(C)(=O)=O)cc4)nc3)CC2)n1,-0.684,-1.03,-0.361,-0.821
CN(C)CC(c1ccc(O)cc1)C1(O)CCCCC1 (configuration not stated) [Desvenlafaxine],0.713,0.608,0.213,-0.211
O=C(O)CCCc1c[nH]c2ccccc12 [3-Indolebutyric acid (IBA)],0.395,0.373,0.517,0.266
CC(C)C[C@H](NC(=O)[C@H](CCc1ccccc1)NC(=O)CN1CCOCC1)C(=O)N[C@@H](Cc1ccccc1)C(=O)N[C@@H](CC(C)C)C(=O)[C@@]1(C)CO1 [Carfilzomib (PR-171)],-0.267,0.27,0.0343,0.422
O=C(O)CC1CC(c2ccccc2)=NO1 (configuration not stated),0.633,-0.44,-0.233,-0.153
CCOC(=O)[C@H](CCc1ccccc1)N[C@@H](C)C(=O)N1CCC[C@H]1C(=O)O.O=C(O)/C=C\C(=O)O [Enalapril Maleate],0.0273,0.342,-0.0555,0.0685
Cc1cn(-c2cc(NC(=O)c3ccc(C)c(Nc4nccc(-c5cccnc5)n4)c3)cc(C(F)(F)F)c2)cn1 [Nilotinib (AMN-107)],-0.438,0.207,0.00409,-0.0948
Oc1cc2c(cc1O)[C@@H]1c3ccc(O)c(O)c3OC[C@]1(O)C2 [Hematoxylin],-0.108,-0.269,-0.311,-0.228
CS(=O)(=O)O.C[C@H](NCc1ccc(OCc2cccc(F)c2)cc1)C(N)=O [Safinamide Mesylate],0.347,-0.158,0.584,-0.187
COc1cc(C(=O)NC2CCCNC2)cc(OC)c1OC (configuration not stated) [Troxipide],0.225,0.558,0.0179,0.285
O=C(COc1cccc2c(=O)[nH]ccc12)c1ccccc1,0.412,-1.08,-0.735,-1.2
CCOC(=O)C1=C(N)Oc2ccc(Br)cc2[C@H]1[C@H](C#N)C(=O)OCC,-0.673,-0.898,-3.01,-2.88
O=P(O)(O)C(O)(Cc1cccnc1)P(=O)(O)[O][Na] (configuration not stated) [Risedronate sodium],0.0047,0.293,0.134,0.233
CCCCOc1ccc(C(=O)CCN2CCCCC2)cc1.Cl [Dyclonine HCl],0.405,-0.0329,-0.286,0.663
CC[N+](CC)(CC)CCOc1cccc(OCC[N+](CC)(CC)CC)c1OCC[N+](CC)(CC)CC.[I-].[I-].[I-] [Gallamine Triethiodide],-0.582,-0.431,0.028,-0.0534
CCN1CCN(c2ccc(Nc3cc(N(C)C(=O)Nc4c(Cl)c(OC)cc(OC)c4Cl)ncn3)cc2)CC1,-0.532,-0.498,-0.397,0.0398
COC(=O)N=NC=C1C=[N+]([O-])c2ccccc2N1O [Carbadox],0.472,0.419,-0.0763,0.652
CCCCOc1cc(C(=O)OCCN(CC)CC)ccc1N.Cl [Oxybuprocaine HCl],-0.27,-0.626,0.312,-0.26
Cc1ncc(C[n+]2csc(CCO)c2C)c(N)n1.Cl.[Cl-] [Thiamine HCl (Vitamin B1)],-0.0685,-0.452,-0.0745,-0.0684
C#C[C@@]1(O)CC[C@H]2[C@@H]3CCc4cc(O)ccc4[C@@H]3CC[C@@]21C [Ethinyl Estradiol],-0.253,-0.227,-1.09,-2.01
CN(C)[C@@H](CCOc1cccc2ccccc12)c1ccccc1.Cl [Dapoxetine HCl],-0.47,-1.29,-2.07,-1.9

# Exported as tab-separated lines: entries from further up.
Structure (SMILES)	OMR-Perf [1]	Prob-Test [2]	Prob-Naive [3]	Prob-Train [4]
O=C(O)CC1CC(c2ccccc2)=NO1 (configuration not stated)	0.633	-0.44	-0.233	-0.153
CCOC(=O)[C@H](CCc1ccccc1)N[C@@H](C)C(=O)N1CCC[C@H]1C(=O)O.O=C(O)/C=C\C(=O)O [Enalapril Maleate]	0.0273	0.342	-0.0555	0.0685
